PubChem BioAssay AID1508597 – Cure First, 2020
Shown is an unselected part of the about 2,100 reagents, in one setting of the screen. 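Calls flag viability under 80% in either arm, not effects specific to rucaparib; the reference for percent is not stated.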 A reagent listed more than once was tested more than once; the source does not tell the runs apart. No sequences are given here. The record does not give: the 100% reference.

Aim: 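Knock-downs altering ovarian cancer cell survival with or without PARP inhibitor rucaparib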 (primary screen)
System: human ovarian carcinoma lines grown from tumours: OCI-P5x (papillary serous) and OCI-C5x (clear cell)
Knock-down reagent: siRNA pool against human genes, 1.25 pmol siRNA per well
Time to read-out: 72 h or 96 h, depending on the cell culture
Challenge: rucaparib 20 µM (about IC30) or vehicle, present until read-out
Rucaparib or vehicle: Rucaparib
Cell line: OCI-C5x (clear cell)
Read-out: 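ATP luminescence measured at 72 or 96 h according to the culture, then normalised and expressed as percent viability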
Scale: viability, normalised: higher = more viable cells remaining
Call rule: 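Active when normalised viability falls below 80 percent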
Calls: active = viability under 80%; inactive = viability 80% or more

gene | PubChem SID | technical replicate | viability, normalised (%) | Call
TK1 | SID405528298 | 1 | 49.3 | active
TK1 | SID405528298 | 1 | 38.2 | active
TK1 | SID405528298 | 2 | 48.5 | active
TK1 | SID405528298 | 2 | 51.8 | active
TK1 | SID405528298 | 3 | 49.8 | active
TK1 | SID405528298 | 3 | 44.2 | active
CXXC4 | SID405528158 | 1 | 44.1 | active
CXXC4 | SID405528158 | 2 | 48.9 | active
CXXC4 | SID405528158 | 3 | 34.9 | active
KDR | SID405527833 | 1 | 53.4 | active
KDR | SID405527833 | 2 | 67.2 | active
KDR | SID405527833 | 3 | 37.1 | active
COQ8A | SID405527783 | 1 | 82.6 | inactive
COQ8A | SID405527783 | 2 | 61.1 | active
COQ8A | SID405527783 | 3 | 73.6 | active
NCOA1 | SID405527062 | 1 | 42.7 | active
NCOA1 | SID405527062 | 2 | 43.9 | active
NCOA1 | SID405527062 | 3 | 45.7 | active
LATS1 | SID405526407 | 1 | 45.7 | active
LATS1 | SID405526407 | 1 | 42.5 | active
LATS1 | SID405526407 | 2 | 41.6 | active
LATS1 | SID405526407 | 2 | 49.2 | active
LATS1 | SID405526407 | 3 | 63.5 | active
LATS1 | SID405526407 | 3 | 68.1 | active
ARRB1 | SID405527984 | 1 | 65.3 | active
ARRB1 | SID405527984 | 2 | 40.3 | active
ARRB1 | SID405527984 | 3 | 55.8 | active
CARM1 | SID405528065 | 1 | 41.5 | active
CARM1 | SID405528065 | 2 | 46.8 | active
CARM1 | SID405528065 | 3 | 23.4 | active
GPX1 | SID405526826 | 1 | 49.1 | active
GPX1 | SID405526826 | 2 | 46.7 | active
GPX1 | SID405526826 | 3 | 46.6 | active
EHMT1 | SID405526743 | 1 | 66.5 | active
EHMT1 | SID405526743 | 2 | 48.3 | active
EHMT1 | SID405526743 | 3 | 42.2 | active
ARL8B | SID405527983 | 1 | 55.9 | active
ARL8B | SID405527983 | 2 | 47.2 | active
ARL8B | SID405527983 | 3 | 48 | active
PDE6C | SID405526696 | 1 | 76.1 | active
PDE6C | SID405526696 | 2 | 47.6 | active
PDE6C | SID405526696 | 3 | 52.9 | active
CDC42BPA | SID405527447 | 1 | 49 | active
CDC42BPA | SID405527447 | 2 | 55.5 | active
CDC42BPA | SID405527447 | 3 | 62.8 | active
KMT2A | SID405527015 | 1 | 27.6 | active
KMT2A | SID405527015 | 2 | 21.8 | active
KMT2A | SID405527015 | 3 | 26.4 | active
BDP1 | SID405528029 | 1 | 44.1 | active
BDP1 | SID405528029 | 2 | 59.8 | active
BDP1 | SID405528029 | 3 | 46.1 | active
PIAS2 | SID405527162 | 1 | 64.4 | active
PIAS2 | SID405527162 | 2 | 52.6 | active
PIAS2 | SID405527162 | 3 | 48.8 | active
NUP98 | SID405527097 | 1 | 30.3 | active
NUP98 | SID405527097 | 1 | 44.1 | active
NUP98 | SID405527097 | 2 | 42.5 | active
NUP98 | SID405527097 | 2 | 32.9 | active
NUP98 | SID405527097 | 3 | 38.1 | active
NUP98 | SID405527097 | 3 | 52.2 | active
